PubChem BioAssay AID652259 – Drosophila RNAi Screening Center | 2013
The deposit covers about 22,000 reagents; below is a random part of those with a known target gene and a result. In the full data, 233 (1.1%) got an active call. 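Light values are raw, unnormalised plate reads; the ratio scores behind the reporter calls were not deposited.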 No sequences are given here. Not stated in the record: the amount of reagent, the time to read-out, the dose of the treatment.

Assay: 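Knock-downs that push a Wingless-driven reporter up or down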 (primary screen)
Cells: Drosophila clone 8 imaginal disc epithelial cells
Reagents: long dsRNA against Drosophila genes
Challenge: pathway stimulated by co-transfected Wingless expression plasmid
Measured: 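Firefly luciferase from a tcf-site Wingless reporter, measured alongside co-transfected Renilla luciferase that tracks transfection; pathway stimulated by a Wingless plasmid; the firefly-to-Renilla ratio is not deposited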
Reading the numbers: firefly reporter light: higher = more Wg reporter light, before normalisation; Renilla control light: higher = more transfected or surviving cells
Rule for the call: 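a knock-down is a candidate when at least two out of four statistical tests show it departing from its plate mean; one test alone signals a weak candidate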
Meaning of the calls: active = candidate regulator (raises or lowers reporter); inactive = not a candidate

{"Target gene": "Alg13", "DRSC id": "DRSC14864", "firefly reporter light, replicate 1": 13532, "firefly reporter light, replicate 2": 8.58e5, "Renilla control light, replicate 1": 4626, "Renilla control light, replicate 2": 3.33e5, "outcome": "inactive"}
{"Target gene": "Nup107", "DRSC id": "DRSC01999", "firefly reporter light, replicate 1": 2771, "firefly reporter light, replicate 2": 7510, "Renilla control light, replicate 1": 856, "Renilla control light, replicate 2": 2500, "outcome": "inactive"}
{"Target gene": "CG30491", "DRSC id": "DRSC21472", "firefly reporter light, replicate 1": 6.88e5, "firefly reporter light, replicate 2": 6.22e5, "Renilla control light, replicate 1": 6.07e5, "Renilla control light, replicate 2": 3.11e5, "outcome": "inactive"}
{"Target gene": "wech", "DRSC id": "DRSC06606", "firefly reporter light, replicate 1": 11448, "Renilla control light, replicate 1": 4555, "outcome": "inactive"}
{"Target gene": "mRpL28", "DRSC id": "DRSC02724", "firefly reporter light, replicate 1": 3532, "firefly reporter light, replicate 2": 7497, "Renilla control light, replicate 1": 828, "Renilla control light, replicate 2": 2346, "outcome": "inactive"}
{"Target gene": "CG33230", "DRSC id": "DRSC08602", "firefly reporter light, replicate 1": 11490, "Renilla control light, replicate 1": 3541, "outcome": "inactive"}
{"Target gene": "IntS6", "DRSC id": "DRSC18281", "firefly reporter light, replicate 1": 2016, "firefly reporter light, replicate 2": 5121, "Renilla control light, replicate 1": 711, "Renilla control light, replicate 2": 1751, "outcome": "inactive"}
{"Target gene": "CG3556", "DRSC id": "DRSC18309", "firefly reporter light, replicate 1": 4123, "firefly reporter light, replicate 2": 10072, "Renilla control light, replicate 1": 1921, "Renilla control light, replicate 2": 2868, "outcome": "inactive"}
{"Target gene": "CG12521", "DRSC id": "DRSC09893", "firefly reporter light, replicate 1": 7290, "Renilla control light, replicate 1": 2405, "outcome": "inactive"}
{"Target gene": "CG31161", "DRSC id": "DRSC16144", "firefly reporter light, replicate 1": 23024, "Renilla control light, replicate 1": 16800, "outcome": "inactive"}

No new results follow: entries from further up.
{"Target gene": "Nup107", "DRSC id": "DRSC01999", "firefly reporter light, replicate 1": 2771, "firefly reporter light, replicate 2": 7510, "Renilla control light, replicate 1": 856, "Renilla control light, replicate 2": 2500, "outcome": "inactive"}
{"Target gene": "CG30491", "DRSC id": "DRSC21472", "firefly reporter light, replicate 1": 6.88e5, "firefly reporter light, replicate 2": 6.22e5, "Renilla control light, replicate 1": 6.07e5, "Renilla control light, replicate 2": 3.11e5, "outcome": "inactive"}
{"Target gene": "wech", "DRSC id": "DRSC06606", "firefly reporter light, replicate 1": 11448, "Renilla control light, replicate 1": 4555, "outcome": "inactive"}
{"Target gene": "mRpL28", "DRSC id": "DRSC02724", "firefly reporter light, replicate 1": 3532, "firefly reporter light, replicate 2": 7497, "Renilla control light, replicate 1": 828, "Renilla control light, replicate 2": 2346, "outcome": "inactive"}

More results follow:
{"Target gene": "Itgbn", "DRSC id": "DRSC03493", "firefly reporter light, replicate 1": 3216, "firefly reporter light, replicate 2": 7140, "Renilla control light, replicate 1": 1139, "Renilla control light, replicate 2": 3500, "outcome": "inactive"}
{"Target gene": "RanGAP", "DRSC id": "DRSC22003", "firefly reporter light, replicate 1": 5.51e5, "firefly reporter light, replicate 2": 5.97e5, "Renilla control light, replicate 1": 1.49e5, "Renilla control light, replicate 2": 1.70e5, "outcome": "inactive"}
{"Target gene": "CheA87a", "DRSC id": "DRSC14839", "firefly reporter light, replicate 1": 11696, "Renilla control light, replicate 1": 3484, "outcome": "inactive"}
{"Target gene": "eIF4E7", "DRSC id": "DRSC17782", "firefly reporter light, replicate 1": 21020, "Renilla control light, replicate 1": 15761, "outcome": "inactive"}
{"Target gene": "eIF4E7", "DRSC id": "DRSC18623", "firefly reporter light, replicate 1": 17138, "Renilla control light, replicate 1": 10652, "outcome": "inactive"}
{"Target gene": "apolpp", "DRSC id": "DRSC17216", "firefly reporter light, replicate 1": 1856, "firefly reporter light, replicate 2": 3394, "Renilla control light, replicate 1": 720, "Renilla control light, replicate 2": 1305, "outcome": "inactive"}
{"Target gene": "phr6-4", "DRSC id": "DRSC03589", "firefly reporter light, replicate 1": 3427, "firefly reporter light, replicate 2": 8541, "Renilla control light, replicate 1": 1016, "Renilla control light, replicate 2": 3400, "outcome": "inactive"}
{"Target gene": "hng2", "DRSC id": "DRSC16412", "firefly reporter light, replicate 1": 14816, "Renilla control light, replicate 1": 4280, "outcome": "inactive"}
{"Target gene": "krz", "DRSC id": "DRSC16979", "firefly reporter light, replicate 1": 27602, "Renilla control light, replicate 1": 14429, "outcome": "inactive"}
{"Target gene": "CG11656", "DRSC id": "DRSC14338", "firefly reporter light, replicate 1": 8096, "Renilla control light, replicate 1": 2395, "outcome": "inactive"}
{"Target gene": "CG33332", "DRSC id": "DRSC15504", "firefly reporter light, replicate 1": 13256, "Renilla control light, replicate 1": 4041, "outcome": "inactive"}
{"Target gene": "veli", "DRSC id": "DRSC16276", "firefly reporter light, replicate 1": 22508, "Renilla control light, replicate 1": 20450, "outcome": "inactive"}
{"Target gene": "Pex10", "DRSC id": "DRSC08599", "firefly reporter light, replicate 1": 24803, "Renilla control light, replicate 1": 7035, "outcome": "inactive"}
{"Target gene": "Pex10", "DRSC id": "DRSC22021", "firefly reporter light, replicate 1": 3.99e5, "firefly reporter light, replicate 2": 4.68e5, "Renilla control light, replicate 1": 1.46e5, "Renilla control light, replicate 2": 2.09e5, "outcome": "inactive"}
{"Target gene": "CG9981", "DRSC id": "DRSC20225", "firefly reporter light, replicate 1": 17356, "Renilla control light, replicate 1": 6912, "outcome": "inactive"}
